Results taken from the supplement of paper PMC10849652.
The list shows a part of the results.

Sequences of proteins named here, by UniProt entry; tags and fusion partners are left off. A change or cut given only in a name is not applied to a line headed by its entry.
UniProt O95292, whole entry, looked up: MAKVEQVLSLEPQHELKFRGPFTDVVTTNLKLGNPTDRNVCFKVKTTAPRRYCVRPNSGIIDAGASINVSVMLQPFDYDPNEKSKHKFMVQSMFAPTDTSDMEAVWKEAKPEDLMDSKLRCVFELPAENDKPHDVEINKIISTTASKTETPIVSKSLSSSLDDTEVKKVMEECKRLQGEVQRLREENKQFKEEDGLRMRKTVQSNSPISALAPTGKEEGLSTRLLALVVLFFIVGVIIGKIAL
UniProt Q9H1J1: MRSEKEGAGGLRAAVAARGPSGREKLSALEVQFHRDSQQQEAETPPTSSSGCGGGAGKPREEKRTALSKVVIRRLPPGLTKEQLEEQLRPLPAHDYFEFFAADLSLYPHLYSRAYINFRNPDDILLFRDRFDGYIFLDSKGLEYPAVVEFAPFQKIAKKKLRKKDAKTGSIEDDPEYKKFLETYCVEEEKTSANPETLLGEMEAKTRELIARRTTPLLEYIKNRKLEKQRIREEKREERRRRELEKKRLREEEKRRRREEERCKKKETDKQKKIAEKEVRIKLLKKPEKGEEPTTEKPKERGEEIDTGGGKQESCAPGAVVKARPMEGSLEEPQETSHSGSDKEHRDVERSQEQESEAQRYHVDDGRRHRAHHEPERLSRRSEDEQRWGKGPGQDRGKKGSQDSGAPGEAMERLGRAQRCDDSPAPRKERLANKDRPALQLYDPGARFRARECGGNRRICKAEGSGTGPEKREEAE
UniProt P31930: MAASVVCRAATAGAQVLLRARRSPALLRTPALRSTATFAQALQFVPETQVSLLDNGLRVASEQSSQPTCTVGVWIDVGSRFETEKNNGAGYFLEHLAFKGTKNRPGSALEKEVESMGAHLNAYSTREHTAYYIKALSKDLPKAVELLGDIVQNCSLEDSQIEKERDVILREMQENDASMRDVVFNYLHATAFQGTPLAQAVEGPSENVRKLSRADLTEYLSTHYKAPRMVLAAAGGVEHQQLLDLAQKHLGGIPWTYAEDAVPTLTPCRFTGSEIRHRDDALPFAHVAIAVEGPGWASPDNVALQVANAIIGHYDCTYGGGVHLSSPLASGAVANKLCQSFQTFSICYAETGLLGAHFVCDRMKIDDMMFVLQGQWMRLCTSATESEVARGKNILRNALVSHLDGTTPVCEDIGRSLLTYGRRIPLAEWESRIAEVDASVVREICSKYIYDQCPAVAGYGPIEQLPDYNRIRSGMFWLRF
UniProt Q9BZX2: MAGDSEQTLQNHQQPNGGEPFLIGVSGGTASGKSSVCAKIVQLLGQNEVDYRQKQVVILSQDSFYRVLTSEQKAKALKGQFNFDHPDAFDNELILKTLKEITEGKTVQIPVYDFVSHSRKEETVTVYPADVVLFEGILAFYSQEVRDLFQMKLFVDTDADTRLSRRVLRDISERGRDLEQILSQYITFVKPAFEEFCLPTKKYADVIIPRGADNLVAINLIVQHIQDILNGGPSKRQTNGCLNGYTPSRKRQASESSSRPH
UniProt Q9BRT2: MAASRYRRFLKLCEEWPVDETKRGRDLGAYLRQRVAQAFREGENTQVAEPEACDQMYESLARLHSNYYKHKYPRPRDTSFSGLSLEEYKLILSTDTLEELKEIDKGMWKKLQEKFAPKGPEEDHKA
UniProt Q9BZM5, whole entry, looked up: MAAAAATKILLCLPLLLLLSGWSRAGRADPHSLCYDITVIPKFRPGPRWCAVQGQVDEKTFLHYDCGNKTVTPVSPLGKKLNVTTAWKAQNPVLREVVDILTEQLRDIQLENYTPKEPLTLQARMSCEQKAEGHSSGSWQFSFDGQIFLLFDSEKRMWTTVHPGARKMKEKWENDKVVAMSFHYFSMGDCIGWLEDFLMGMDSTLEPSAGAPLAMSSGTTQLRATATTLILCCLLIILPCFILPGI
UniProt P50552: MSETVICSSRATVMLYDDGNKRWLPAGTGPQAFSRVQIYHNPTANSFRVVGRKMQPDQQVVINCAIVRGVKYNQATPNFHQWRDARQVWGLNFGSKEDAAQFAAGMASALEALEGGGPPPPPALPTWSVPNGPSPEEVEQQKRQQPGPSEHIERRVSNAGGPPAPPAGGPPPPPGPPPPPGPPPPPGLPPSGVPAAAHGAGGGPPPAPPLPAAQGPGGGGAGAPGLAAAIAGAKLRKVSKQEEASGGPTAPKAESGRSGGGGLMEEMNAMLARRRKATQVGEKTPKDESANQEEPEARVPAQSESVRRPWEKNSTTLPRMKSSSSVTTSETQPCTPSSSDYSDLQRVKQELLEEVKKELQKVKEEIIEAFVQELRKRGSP
UniProt P26640: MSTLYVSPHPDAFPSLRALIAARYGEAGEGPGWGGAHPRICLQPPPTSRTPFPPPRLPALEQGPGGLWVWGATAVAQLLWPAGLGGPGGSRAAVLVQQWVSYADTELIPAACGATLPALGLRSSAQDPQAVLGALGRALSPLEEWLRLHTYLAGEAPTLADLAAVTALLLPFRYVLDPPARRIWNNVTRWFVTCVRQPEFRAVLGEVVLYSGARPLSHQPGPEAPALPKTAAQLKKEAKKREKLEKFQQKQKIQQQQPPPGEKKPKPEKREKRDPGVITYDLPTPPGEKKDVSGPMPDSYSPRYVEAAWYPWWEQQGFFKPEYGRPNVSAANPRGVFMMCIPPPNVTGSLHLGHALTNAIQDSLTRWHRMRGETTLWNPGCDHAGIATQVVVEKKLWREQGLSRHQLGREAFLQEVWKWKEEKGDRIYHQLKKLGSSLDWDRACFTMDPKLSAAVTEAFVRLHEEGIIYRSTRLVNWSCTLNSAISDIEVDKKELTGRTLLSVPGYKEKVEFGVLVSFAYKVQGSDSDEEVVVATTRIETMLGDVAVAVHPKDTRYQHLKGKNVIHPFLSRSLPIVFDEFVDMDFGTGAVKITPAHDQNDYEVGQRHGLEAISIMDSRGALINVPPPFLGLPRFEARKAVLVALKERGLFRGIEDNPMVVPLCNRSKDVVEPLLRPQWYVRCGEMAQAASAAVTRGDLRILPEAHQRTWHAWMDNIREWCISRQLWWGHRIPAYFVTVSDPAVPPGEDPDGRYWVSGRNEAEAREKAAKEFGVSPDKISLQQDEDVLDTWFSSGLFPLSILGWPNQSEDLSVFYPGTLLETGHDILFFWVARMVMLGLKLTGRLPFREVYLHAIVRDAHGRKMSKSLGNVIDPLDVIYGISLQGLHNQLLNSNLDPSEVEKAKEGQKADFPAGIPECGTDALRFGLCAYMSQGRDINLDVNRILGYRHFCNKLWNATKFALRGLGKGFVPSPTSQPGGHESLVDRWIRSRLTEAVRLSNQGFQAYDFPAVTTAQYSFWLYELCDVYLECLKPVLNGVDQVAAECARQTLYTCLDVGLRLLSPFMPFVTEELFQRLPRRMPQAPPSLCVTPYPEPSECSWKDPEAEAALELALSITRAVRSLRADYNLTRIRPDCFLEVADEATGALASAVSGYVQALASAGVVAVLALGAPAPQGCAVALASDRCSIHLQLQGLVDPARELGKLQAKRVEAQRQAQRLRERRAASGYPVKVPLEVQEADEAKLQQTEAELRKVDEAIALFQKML
UniProt Q96S82: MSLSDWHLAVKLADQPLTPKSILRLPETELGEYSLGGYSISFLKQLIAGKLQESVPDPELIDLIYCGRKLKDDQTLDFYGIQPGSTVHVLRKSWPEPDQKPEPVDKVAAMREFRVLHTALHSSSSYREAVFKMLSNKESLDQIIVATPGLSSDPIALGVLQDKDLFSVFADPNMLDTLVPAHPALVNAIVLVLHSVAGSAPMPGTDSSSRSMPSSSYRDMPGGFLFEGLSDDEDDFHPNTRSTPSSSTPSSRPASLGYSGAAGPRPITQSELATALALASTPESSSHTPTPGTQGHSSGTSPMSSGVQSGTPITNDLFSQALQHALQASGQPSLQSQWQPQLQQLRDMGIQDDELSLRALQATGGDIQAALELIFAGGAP
UniProt Q8IX04: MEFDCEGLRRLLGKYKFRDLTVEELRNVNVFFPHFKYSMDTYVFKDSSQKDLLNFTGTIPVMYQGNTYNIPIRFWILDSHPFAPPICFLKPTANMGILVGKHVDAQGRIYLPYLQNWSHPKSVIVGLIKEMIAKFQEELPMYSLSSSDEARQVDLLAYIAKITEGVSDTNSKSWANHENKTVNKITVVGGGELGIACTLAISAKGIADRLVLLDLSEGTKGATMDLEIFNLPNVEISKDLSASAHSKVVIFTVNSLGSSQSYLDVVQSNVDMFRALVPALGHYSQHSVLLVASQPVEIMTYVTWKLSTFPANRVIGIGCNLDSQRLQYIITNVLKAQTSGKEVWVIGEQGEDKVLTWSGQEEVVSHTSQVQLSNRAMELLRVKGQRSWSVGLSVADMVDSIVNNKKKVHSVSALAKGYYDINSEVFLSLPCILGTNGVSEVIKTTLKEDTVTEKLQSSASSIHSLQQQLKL
UniProt Q16739: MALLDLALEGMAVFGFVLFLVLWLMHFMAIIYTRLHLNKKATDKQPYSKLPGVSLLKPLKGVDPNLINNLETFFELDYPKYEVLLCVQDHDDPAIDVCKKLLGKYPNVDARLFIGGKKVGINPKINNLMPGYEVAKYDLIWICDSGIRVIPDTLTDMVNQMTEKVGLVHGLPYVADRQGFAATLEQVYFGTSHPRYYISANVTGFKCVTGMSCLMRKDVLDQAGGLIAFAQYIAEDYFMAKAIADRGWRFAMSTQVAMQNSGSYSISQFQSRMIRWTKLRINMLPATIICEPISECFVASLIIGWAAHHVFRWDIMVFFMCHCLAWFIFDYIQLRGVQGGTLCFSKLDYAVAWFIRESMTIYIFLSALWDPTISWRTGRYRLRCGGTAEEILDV
UniProt P06132: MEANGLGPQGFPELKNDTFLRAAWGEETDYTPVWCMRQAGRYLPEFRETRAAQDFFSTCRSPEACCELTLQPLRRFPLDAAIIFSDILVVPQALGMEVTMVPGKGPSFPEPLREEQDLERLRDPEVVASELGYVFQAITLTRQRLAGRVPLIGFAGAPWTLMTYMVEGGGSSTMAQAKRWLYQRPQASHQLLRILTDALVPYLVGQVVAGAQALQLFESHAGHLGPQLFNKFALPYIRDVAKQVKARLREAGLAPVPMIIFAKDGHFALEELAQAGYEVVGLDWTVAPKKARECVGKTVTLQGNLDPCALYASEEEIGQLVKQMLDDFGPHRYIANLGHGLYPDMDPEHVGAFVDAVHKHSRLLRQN
UniProt P11441: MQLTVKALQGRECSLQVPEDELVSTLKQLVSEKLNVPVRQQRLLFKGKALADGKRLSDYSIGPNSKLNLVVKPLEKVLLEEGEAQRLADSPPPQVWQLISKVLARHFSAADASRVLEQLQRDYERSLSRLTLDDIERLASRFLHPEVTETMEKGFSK
UniProt O94966: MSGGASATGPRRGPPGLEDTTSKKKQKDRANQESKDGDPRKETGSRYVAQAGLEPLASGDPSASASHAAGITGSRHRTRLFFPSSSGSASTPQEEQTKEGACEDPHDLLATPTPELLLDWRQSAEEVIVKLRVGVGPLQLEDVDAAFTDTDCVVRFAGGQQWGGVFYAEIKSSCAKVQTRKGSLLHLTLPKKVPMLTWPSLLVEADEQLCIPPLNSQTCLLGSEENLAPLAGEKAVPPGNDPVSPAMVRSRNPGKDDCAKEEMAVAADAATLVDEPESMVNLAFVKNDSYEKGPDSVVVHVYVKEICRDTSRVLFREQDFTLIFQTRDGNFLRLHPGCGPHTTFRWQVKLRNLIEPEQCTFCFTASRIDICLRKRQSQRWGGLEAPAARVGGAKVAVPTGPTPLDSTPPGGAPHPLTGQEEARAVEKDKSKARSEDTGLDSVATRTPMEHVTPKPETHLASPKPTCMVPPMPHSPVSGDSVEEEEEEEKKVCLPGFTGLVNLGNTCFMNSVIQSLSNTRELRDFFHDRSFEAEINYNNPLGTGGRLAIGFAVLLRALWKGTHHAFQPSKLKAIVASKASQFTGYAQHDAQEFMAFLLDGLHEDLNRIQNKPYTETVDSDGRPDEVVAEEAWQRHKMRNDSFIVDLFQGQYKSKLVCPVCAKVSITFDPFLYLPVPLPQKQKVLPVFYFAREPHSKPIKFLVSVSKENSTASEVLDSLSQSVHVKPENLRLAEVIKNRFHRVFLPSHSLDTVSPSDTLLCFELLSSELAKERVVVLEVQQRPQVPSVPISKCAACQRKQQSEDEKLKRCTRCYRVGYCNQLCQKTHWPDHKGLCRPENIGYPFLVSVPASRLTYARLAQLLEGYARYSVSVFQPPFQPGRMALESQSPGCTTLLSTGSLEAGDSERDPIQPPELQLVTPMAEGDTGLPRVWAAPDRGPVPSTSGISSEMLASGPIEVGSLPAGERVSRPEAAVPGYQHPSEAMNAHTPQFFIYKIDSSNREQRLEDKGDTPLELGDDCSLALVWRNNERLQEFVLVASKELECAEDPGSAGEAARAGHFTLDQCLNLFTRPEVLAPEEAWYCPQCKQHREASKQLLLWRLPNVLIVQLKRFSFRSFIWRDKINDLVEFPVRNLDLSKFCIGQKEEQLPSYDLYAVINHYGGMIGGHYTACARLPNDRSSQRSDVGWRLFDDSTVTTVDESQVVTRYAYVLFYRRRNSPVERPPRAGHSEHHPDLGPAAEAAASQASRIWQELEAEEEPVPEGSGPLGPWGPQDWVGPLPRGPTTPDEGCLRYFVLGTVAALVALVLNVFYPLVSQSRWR

Compound: c1cn2cc(-c3ccc4cn[nH]c4c3)nc(Nc3ccc(N4CCOCC4)cc3)c2n1 [entospletinib]
Assay: log2 fold change, soluble protein after heating vs DMSO (PISA); higher = thermal stabilisation; K562 cells, 10 uM, 30 min; active = over 0.2 and 3.5 SD of the protein, either way, in both replicates (recomputed)
Summary of the method: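 K562 cells (2×10^6 cells/mL) were treated with 10 μM compound for 30 min, and aliquots were heated for 3 min over 48°C-58°C. Pooled aliquots were extracted in PBS with 0.5% NP-40 at 4°C, and the supernatant after 21,000xg for 90 min was measured by TMTpro 16plex LC-MS/MS with channel sums equalised. Reported thermal stability, relative to control samples and from duplicates, is a log2 fold change.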

log2 fold change, inactive:
VAPB (UniProt O95292) -0.046
VCP (UniProt P55072) -0.001
UPF3A (UniProt Q9H1J1) 0.119
UQCRC1 (UniProt P31930) -0.012
UCK2 (UniProt Q9BZX2) -0.039
UQCC2 (UniProt Q9BRT2) 0.045
UCHL3 (UniProt P15374) 0.054
VAMP8 (UniProt Q9BV40) 0.008
ULBP2 (UniProt Q9BZM5) -0.013
VASP (UniProt P50552) 0.015
VARS (UniProt P26640) 0.022
UBL7 (UniProt Q96S82) -0.027
USP12 (UniProt O75317) -0.022
UEVLD (UniProt Q8IX04) -0.042
UMAD1 (UniProt C9J7I0) 0.071
USP8 (UniProt P40818) 0.03
UGCG (UniProt Q16739) -0.094
UNK (UniProt Q9C0B0) 0.028
UROD (UniProt P06132) 0.02
USP22 (UniProt Q9UPT9) 0.015
UBR4 isoform 2 (UniProt Q5T4S7) 0.049
UBL4A (UniProt P11441) 0.047
UBXN4 (UniProt Q92575) 0.018
UBQLN4 (UniProt Q9NRR5) 0.006
UBQLN2 (UniProt Q9UHD9) -0.002
USP19 isoform 6 (UniProt O94966) -0.025
UQCRFS1 (UniProt P47985) -0.029
VAPA (UniProt Q9P0L0) -0.148
USP13 (UniProt Q92995) -0.015

A portion from further up, as a working copy:
log2 fold change, inactive:
UROD (UniProt P06132) 0.02
USP22 (UniProt Q9UPT9) 0.015
UBR4 isoform 2 (UniProt Q5T4S7) 0.049
UBL4A (UniProt P11441) 0.047
UBXN4 (UniProt Q92575) 0.018
UBQLN4 (UniProt Q9NRR5) 0.006
UBQLN2 (UniProt Q9UHD9) -0.002
USP19 isoform 6 (UniProt O94966) -0.025
